# Results are given in words; binding and its absence hold for the method and conditions named.
# B1: SfSTING V280D (enzyme, UniProt A0A2T5Y4G4 1-323)
# chain: MKKRIFIGSSSEQLTILNEIVDLLGDDVECIPWTDAFALNKSGLDSLIKQTRLADYSILIATKDDLTKQRGESLTKPRDNVVFEFGLFLGAAGPEKCYLIAEEDTDLPTDLDGITVAKFTRNSGQYNSLDKIVESIRTHLVKIAEMSQLGLLPSTALAIGYYNSFIKRVCEEIHGSECVELEGKKIKVKSFRVDVVIPETLDDNGVGNFTTLYNKRYGLSKATTCTNPALLGTRGFPFHFKVDPPDANQESPVDIHLLDIPSTLSTIVESLKLYLPSNQDGQDFDMDYLEMRELENFAKVLKYLIGRNAATKGYVNVLTNVKL
# Target: SfSTING V280D (Sphingobacterium faecium)
# Assay: native gel or EMSA; 20 μM protein with about 1 μM 32P-labelled c-di-GMP, 5 mM Mg(OAc)2, 50 mM Tris-HCl pH 7.5, 50 mM KCl, 5 min at 25 °C, 6% nondenaturing polyacrylamide gel; 'probable filament band' read as dimers to filament; both purified
binder,measurement,value
B1,binding,no binding (tested: 20 μM)

# — PMC9402430, “Cryo-EM structure of an active bacterial TIR–STING filament complex” (Nature, 2022)
